# According to US20130053395A1, “PYRAZOLOPYRIDINE KINASE INHIBITORS” (VERTEX PHARMACEUTICALS INCORPORATED, priority 2010, published 2013):
# By UniProt entry, the sequences of proteins in these tests, tags left out. Where a name states a change or a piece, a line headed by the entry shows the natural chain unless it says otherwise.
# UniProt Q05655: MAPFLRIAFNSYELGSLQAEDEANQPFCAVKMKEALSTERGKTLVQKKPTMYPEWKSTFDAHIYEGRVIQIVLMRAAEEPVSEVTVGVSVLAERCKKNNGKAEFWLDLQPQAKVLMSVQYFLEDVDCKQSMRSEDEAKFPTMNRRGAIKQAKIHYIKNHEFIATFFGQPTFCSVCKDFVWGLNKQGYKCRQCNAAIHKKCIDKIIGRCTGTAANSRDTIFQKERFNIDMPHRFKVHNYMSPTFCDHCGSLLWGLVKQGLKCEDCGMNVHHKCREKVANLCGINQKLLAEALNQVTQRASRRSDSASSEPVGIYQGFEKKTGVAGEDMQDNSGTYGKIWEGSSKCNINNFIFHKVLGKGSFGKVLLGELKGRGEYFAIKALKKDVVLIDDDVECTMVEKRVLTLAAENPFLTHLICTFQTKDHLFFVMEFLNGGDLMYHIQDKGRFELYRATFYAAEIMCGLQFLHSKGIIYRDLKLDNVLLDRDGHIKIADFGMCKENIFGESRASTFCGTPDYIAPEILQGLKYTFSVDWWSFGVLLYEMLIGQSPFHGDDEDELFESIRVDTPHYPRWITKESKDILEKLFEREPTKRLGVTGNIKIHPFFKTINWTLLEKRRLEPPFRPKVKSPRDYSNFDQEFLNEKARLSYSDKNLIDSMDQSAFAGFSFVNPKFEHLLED
# Some entries share one result that the patent states for a list of compounds.
# Columns and labels:
# [1] = target: PKC alpha kinase (Homo sapiens, UniProt P17252); assay: PKC alpha kinase coupled-enzyme (NADH) Ki assay; assay type: biochemical; conditions: 4.5 nM PKC alpha, 130 μM ATP, 100 μM CaCl2, 30° C., initial rate at 340 nM
# [2] = target: PKC delta kinase (Homo sapiens, UniProt Q05655); assay: PKC delta kinase coupled-enzyme (NADH) Ki assay; assay type: biochemical; conditions: 46 nM PKC delta, 150 μM ATP, 30° C., initial rate at 340 nM
# Experimental: An assay buffer solution was prepared which consisted of 100 mM HEPES (pH 7.5), 10 mM MgCl2, 25 mM NaCl, 0.1 mM EDTA and 0.01% Brij. An enzyme buffer containing reagents to final assay concentrations of 0.002% Triton X-100, 200 μg/mL Phosphatidylserine, 20 μg/mL Diacylglycerol, 360 μM NADH, 3 mM phosphoenolpyruvate, 70 μg/mL pyruvate kinase, 24 μg/mL lactate dehydrogenase, 2 mM DTT, 150 μM substrate peptide ([…] SEQ ID NO. 2) and 46 nM PKC delta kinase was prepared in assay buffer. To 16 μL of this enzyme buffer, in a 384 well plate, was added 1 μL of VRT stock solution in DMSO. The mixture was allowed to equilibrate for 10 mins at 30° C. The enzyme reaction was initiated by the addition of 16 μL stock ATP solution prepared in assay buffer to a final assay concentration of 150 μM. Initial rate data was determined from the rate of change of absorbance at 340 nm (corresponding to stoichiometric consumption of NADH) using a Molecular Devices Spectramax plate reader (Sunnyvale, Calif.) over 15 mins at 30° C. For each Ki determination 12 data points covering the VRT concentration range of 0-20 μM were obtained in duplicate (DMSO stocks were prepared from an initial 10 mM VRT stock with subsequent 1:2 serial dilutions). Ki values were calculated from initial rate data by non-linear regression using the Prism software package (Prism 4.0a, Graphpad Software, San Diego, Calif.).
Compound,Ki [1],Ki [2]
"CC(C)(O)[C@@H]1CN(c2nc(-c3n[nH]c4ncccc34)c(F)cc2F)CCN1 [Compound 1, (S)-2-(4-(3,5-difluoro-6-(1H-pyrazolo[3,4-b]pyridin-3-yl)pyridin-2-yl)piperazin-2-yl)propan-2-ol]",> 1250 nM,–
OC1(C2CN(c3nc(-c4n[nH]c5ncccc45)c(F)cc3F)CCN2)CCC1 (stereo not shown) [Compound 2],> 1250 nM,–
CCC(O)(CC)[C@@H]1CN(c2nc(-c3n[nH]c4ncccc34)c(F)cc2F)CCN1 [Compound 3],< 2800 nM,–
OC1([C@@H]2CN(c3nc(-c4n[nH]c5ncccc45)c(F)cc3Cl)CCN2)CC1 [Compound 4],< 2800 nM,–
CC(C)(O)[C@@H]1CN(c2nc(-c3n[nH]c4ncccc34)c(F)cc2Cl)CCN1 [Compound 5],> 1250 nM,–
OC1(C2CN(c3nc(-c4n[nH]c5ncccc45)c(F)cc3Cl)CCN2)CCC1 (stereo not shown) [Compound 6],< 2800 nM,–
CC(C)C[C@@H]1CN(c2nc(-c3n[nH]c4ncccc34)c(F)cc2F)CCN1 [Compound 7],> 1250 nM,< 2800 nM
CC(C)C[C@@H]1CN(c2nc(-c3n[nH]c4ncccc34)c(F)cc2Cl)CCN1 [Compound 8],> 1250 nM,< 2800 nM
OC[C@@H]1CN(c2nc(-c3n[nH]c4ncccc34)c(F)cc2Cl)CCN1 [Compound 9],> 1250 nM,–
OC[C@@H]1CN(c2nc(-c3n[nH]c4ncccc34)c(F)cc2F)CCN1 [Compound 10],> 1250 nM,–
"CC(C)C[C@@H]1CN(c2nc(-c3n[nH]c4ncccc34)c(C#N)cc2F)CCN1 [Compound 11, (R)-5-fluoro-6-(3-isobutylpiperazin-1-yl)-2-(1H-pyrazolo[3,4-b]pyridin-3-yl)nicotinonitrile]",> 1250 nM,–
